Source: PubChem BioAssay AID2685 (National Center for Advancing Translational Sciences (NCATS), 2010)
This is one part of the list. Shown are side measurements of this screen, not its main read-out; they come without a call. The list favours compounds with an active or inconclusive main result. Words in brackets tell the shape of the fitted curve; partial curves, single points and poor fits give uncertain potencies.

Assay: qHTS Assay for Lipid Storage Modulators in Drosophila S3 Cells;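 for cell number change: cells counted by Cell Tracker Red CMTPX staining in the red channel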
Details: BODIPY lipid droplet fluorescence, 18-24 h; for cell number change: measured here: cell count max response, cells fed with added oleic acid
Method in brief: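 Drosophila S3 cells got compounds at several concentrations plus oleic acid (400 uM solution). Laser-scanning cytometry with 488 nm excitation read lipid droplets at 500-530 nm and cells at 575-640 nm. Percent activity was relative to 20 uM Triacsin C.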

[1] = measured here: cell number channel AC50, cells fed with added oleic acid
[2] = measured here: lipid fluorescence (Fed channel) AC50, cells fed with added oleic acid

Row | Compound | cell number change [%] | AC50 [1] | AC50 [2]
1 | Cc1ccc(C(=O)Nc2ccc(S(=O)(=O)NC3=NCCCCC3)cc2)c(C)c1 | 14.5 | – | –
2 | CCOC(=O)c1ccc(CNC(=O)Cn2nnc(-c3ccccc3)n2)o1 | 81.8 | 1.84 µM [rising, full curve] | 6.51 µM [rising, partial curve, poor fit]
3 | CCN(CC(=O)Nc1ccc2c(c1)OCO2)CC(=O)Nc1ccccc1C(F)(F)F | 1.65 | – | 29.1 µM [rising, single point]
4 | O=C(/C=C/c1ccccc1)c1ccc(NC2=NCCCS2)cc1 | -0.984 | – | 2.31 µM [rising, single point]
5 | Cc1ccn(CCNC(=O)C2CCC(=O)N(Cc3ccc(Cl)cc3)C2)n1 (stereo not drawn) | -22.8 | – | 7.31 µM [falling, single point]
6 | COc1ccc(NC(=O)Cc2nc3ccccc3[nH]2)cc1 | 2.13 | – | 3.66 µM [rising, partial curve]
7 | COC(=O)c1ccc2[nH]c(C(C)(C)O)c(C)c2c1 | 9.39 | – | –
8 | O=C(NCc1ccco1)c1cnn2c(C(F)F)cc(-c3ccccc3)nc12 | -19.2 | – | 20.6 µM [falling, single point]
9 | COc1ccccc1N/N=C/c1c(CO)cnc(C)c1O | 90.6 | 9.2 µM [rising, partial curve] | 2.59 µM [rising, partial curve]
10 | CCC(CO)NCc1ccc2c(c1)n(C)c(=O)n2C (stereo not drawn) | -5.22 | – | 0.116 µM [falling, full curve]
11 | C=CCn1c(SCC(=O)NC2CC2)nc2ccccc2c1=O | -16.3 | – | 0.0058 µM [falling, full curve, poor fit]
12 | Cc1ccc(/C=C2\SC(=S)N(CCCC(=O)N3CCOCC3)C2=O)cc1 | -10.5 | – | 29.1 µM [falling, single point]
13 | O=C(Cc1cccs1)NCCN1CCOCC1 | -40.7 | 16.4 µM [falling, single point] | 4.61 µM [falling, full curve]
14 | CCOC(=O)CC(=O)CSc1nc2ccccc2c(=O)n1-c1ccc(C(=O)NCCOC)cc1 | 23 | 2.06 µM [rising, full curve, poor fit] | 2.59 µM [rising, full curve]
15 | Cc1ccc(C(=O)NC(=S)Nc2ccc(N3CCOCC3)cc2)cc1C | -14.6 | – | 0.794 µM [falling, full curve, poor fit]
16 | CC(C)[C@H](NS(=O)(=O)c1ccc(Cl)cc1)C(=O)OCC(=O)c1c(N)n(C)c(=O)n(C)c1=O | – | – | 18.4 µM [falling, partial curve]
17 | CC(=O)N1C(c2ccccc2)CC(=O)OC1c1ccc2c(c1)OCO2 (stereo not drawn) | 27.7 | 3.66 µM [rising, full curve, poor fit] | 6.51 µM [rising, full curve]
18 | O=C(CN1C(=O)NC2(CCCC2)C1=O)NCC1CCCO1 (stereo not drawn) | 15.3 | – | –
19 | CC(=O)N1CCN(Cc2nc3cc(NC(=O)NC4CCCCC4)ccc3n2C)CC1 | 7.91 | 0.58 µM [rising, single point] | –
20 | Cc1cccc(OCC(=O)Nc2nnc(S(=O)(=O)N3CCCCC3)s2)c1 | 9.8 | – | 10.3 µM [rising, partial curve]
21 | COc1ccccc1NS(=O)(=O)c1cccc(C(=O)NCc2ccccn2)c1 | 44.7 | 5.62 µM [rising, full curve] | 11.2 µM [rising, partial curve]

Row | Compound | cell number change [%] | AC50 [1] | AC50 [2]
22 | CC(C)(C)c1ccc(C2C(C(=O)c3ccco3)=C(O)C(=O)N2CC2CCCO2)cc1 (stereo not drawn) | 6.09 | – | –
23 | CC(=O)Nc1ccc(NC(=O)c2cccc3c2-c2ccccc2C3=O)cc1 | 8.1 | – | 0.146 µM [falling, full curve, poor fit]
24 | CNC(=S)N/N=C/c1cn(Cc2c(F)cccc2Cl)c2ccccc12 | -8.71 | – | 2.31 µM [rising, full curve]
25 | O=S(=O)(Nc1cccc(-n2cnnn2)c1)c1cccc(Cl)c1 | 1.42 | – | 23.1 µM [falling, single point]
26 | N#CCSc1nnc(Cc2cccs2)n1C1CCCCC1 | -24.4 | – | 0.103 µM [falling, full curve, poor fit]
27 | COc1ccc(-c2cc(C(=O)Nc3ccc(C(N)=O)cc3)c3ccccc3n2)cc1 | 25.2 | – | –
28 | Cc1n[nH]c(=S)n1/N=C/c1cccc(OCc2ccccc2)c1 | -13.1 | – | –
29 | Cc1c(Cc2ccccc2)c(=O)oc2cc(OCC(=O)NCC(O)c3ccccc3)ccc12 (stereo not drawn) | -21.9 | – | 29.1 µM [falling, single point]
30 | OC1(C2(O)CC(c3ccccc3)ON2)CCCCC1 (stereo not drawn) | -15.6 | – | –
31 | COc1cc(NC(=O)CSc2nc(C3CC3)nc3ccccc23)cc(OC)c1 | 9.57 | – | –
32 | COc1ccc(C2=NOC(C(=O)O)C2)cc1 (stereo not drawn) | 25.3 | – | 20.6 µM [rising, single point]
33 | COc1ccc(S(=O)(=O)Cc2ccc(C(=O)NCCCN(C)c3ccccc3)o2)cc1 | -18.4 | – | 29.1 µM [falling, single point]
34 | O=C(Nc1ccccc1C(=O)O)c1ccc(NC(=O)C2CCCO2)cc1 (stereo not drawn) | 35.2 | – | 29.1 µM [rising, partial curve]
35 | Cc1ccc(C(=O)C2=C(O)C(=O)N(Cc3cccnc3)C2c2ccc(N(C)C)cc2)o1 (stereo not drawn) | -7.69 | – | –
36 | COc1cc2cnc(-c3ccccc3)c(-c3cccc(C(F)(F)F)c3)c2cc1OC | – | – | 0.82 µM [falling, single point]
37 | CCOC(=O)c1ccc(N=c2ssnc2Cl)cc1 | -19 | – | –
38 | CC(=O)Nc1ccc2c(c1)OCCOCCOc1cc(NC(C)=O)ccc1OCCOCCOCCO2 | -16 | – | 4.11 µM [rising, partial curve]
39 | CN(C)C(CN=C1NS(=O)(=O)c2ccccc21)c1ccco1 (stereo not drawn) | 6.67 | – | 0.461 µM [rising, full curve, poor fit]
40 | Cc1ccc(C2(C)NC(=O)N(CC(=O)NC3CCCCC3)C2=O)cc1 (stereo not drawn) | -19.4 | 1.84 µM [falling, partial curve, poor fit] | 1.46 µM [falling, partial curve]
41 | CCOC(=O)c1sc(-c2ccc(OC)cc2)cc1N | -10.9 | – | –
42 | COc1ccc(N2CCN(C(=O)Cc3nn(C)c(=O)c4ccccc34)CC2)cc1 | – | 0.411 µM [rising, single point] | –

Row | Compound | cell number change [%] | AC50 [1] | AC50 [2]
43 | COc1ccccc1C(=O)Oc1ccc(C(C)C)cc1 | -5.95 | – | 0.0731 µM [rising, full curve, poor fit]
44 | N#CCSc1nnc(COc2cccc3ccccc23)n1-c1cccc(Cl)c1 | -37.7 | 10.3 µM [falling, partial curve, poor fit] | 29.1 µM [falling, single point]
45 | COC(=O)C1=C(C)NC(=O)CC1c1cccc(OC)c1OC (stereo not drawn) | 0.723 | – | 0.00461 µM [rising, full curve, poor fit]
46 | CCN(C(=O)CSc1nnc(C2CC2)n1-c1ccccc1)C1CCS(=O)(=O)C1 (stereo not drawn) | -40.3 | 29.1 µM [falling, single point] | 29.1 µM [falling, single point]
47 | O=S(=O)(c1ccc2ccccc2c1)n1cccn1 | 21.5 | – | 23.1 µM [falling, single point]
48 | COc1ccc2[nH]c3ccc(OC)cc3c2c1 | -31 | 18.4 µM [falling, single point] | –
49 | Cc1ccc(S(=O)(=O)Nn2c(C)nnc2-n2nc(C)cc2C)cc1 | -19.3 | – | 0.0517 µM [falling, full curve, poor fit]
50 | O=C(NCCOC(=O)c1ccccc1)c1ccc([N+](=O)[O-])cc1 | -19.9 | – | 0.58 µM [rising, single point]
51 | CCN(CC(=O)Nc1ccc2c(c1)OCCO2)C(=O)C(C)Oc1ccc(Cl)cc1 (stereo not drawn) | 12 | – | –
52 | CCCCC(=O)NC(=S)Nc1ccc(NC(=O)C(C)C)c(OC)c1 | -27.1 | – | –
53 | O=c1cc(-c2ccccc2)c2cc3c(cc2[nH]1)OCCO3 | 23.7 | – | –
54 | O=C(/C=C/c1cccc([N+](=O)[O-])c1)NC(=S)Nc1cccc(NC(=O)c2ccccc2Cl)c1 | -59.2 | 32.6 µM [falling, single point] | –
55 | Cc1ccc(-c2noc(C3CCCCC3)n2)cc1 | 37.4 | 23.1 µM [rising, single point] | –
56 | CCN(CC)CCN1C(=O)C(O)=C(C(=O)c2ccco2)C1c1ccccn1 (stereo not drawn) | -52.3 | 29.1 µM [falling, single point] | 5.17 µM [falling, full curve]
57 | COc1ccc(/C=C2\SC(=S)N(CCCC(=O)N3CCOCC3)C2=O)cc1OC | 9.46 | – | 23.1 µM [rising, partial curve, poor fit]
58 | Cc1cc(=O)[nH]c(N/N=C/c2cc(C)n(-c3ccccc3)c2C)n1 | 24.4 | – | 0.651 µM [falling, full curve, poor fit]
59 | COc1ccc(Cl)cc1C(=O)OCC(=O)NC1CCCC(C)C1C (stereo not drawn) | 56.9 | 23.1 µM [rising, single point] | –
60 | O=c1c2ccccc2nc(SCc2ccncc2)n1CC1CCCO1 (stereo not drawn) | 15.9 | – | 1.64 µM [rising, single point]
61 | CC(NC(=O)c1ccccc1)c1nc2ccccc2n1Cc1ccc(C#N)cc1 (stereo not drawn) | -19.7 | – | 0.13 µM [falling, full curve, poor fit]
62 | O=C(NCCO)c1ccc(-c2nnc(N3CCOCC3)c3ccccc23)cc1 | 12.3 | 0.082 µM [falling, full curve, poor fit] | 6.51 µM [falling, single point]

Reformatted in CSV form: part of the list above.
Row,Compound,cell number change [%],AC50 [1],AC50 [2]
32,COc1ccc(C2=NOC(C(=O)O)C2)cc1 (stereo not drawn),25.3,–,"20.6 µM [rising, single point]"
33,COc1ccc(S(=O)(=O)Cc2ccc(C(=O)NCCCN(C)c3ccccc3)o2)cc1,-18.4,–,"29.1 µM [falling, single point]"
34,O=C(Nc1ccccc1C(=O)O)c1ccc(NC(=O)C2CCCO2)cc1 (stereo not drawn),35.2,–,"29.1 µM [rising, partial curve]"
